Measurements from the supplement of paper PMC10849652.
This is one part of the list.

Sequences of proteins named here, by UniProt entry; tags and fusion partners are left off. A change or cut given only in a name is not applied to a line headed by its entry.
UniProt Q8WUH2: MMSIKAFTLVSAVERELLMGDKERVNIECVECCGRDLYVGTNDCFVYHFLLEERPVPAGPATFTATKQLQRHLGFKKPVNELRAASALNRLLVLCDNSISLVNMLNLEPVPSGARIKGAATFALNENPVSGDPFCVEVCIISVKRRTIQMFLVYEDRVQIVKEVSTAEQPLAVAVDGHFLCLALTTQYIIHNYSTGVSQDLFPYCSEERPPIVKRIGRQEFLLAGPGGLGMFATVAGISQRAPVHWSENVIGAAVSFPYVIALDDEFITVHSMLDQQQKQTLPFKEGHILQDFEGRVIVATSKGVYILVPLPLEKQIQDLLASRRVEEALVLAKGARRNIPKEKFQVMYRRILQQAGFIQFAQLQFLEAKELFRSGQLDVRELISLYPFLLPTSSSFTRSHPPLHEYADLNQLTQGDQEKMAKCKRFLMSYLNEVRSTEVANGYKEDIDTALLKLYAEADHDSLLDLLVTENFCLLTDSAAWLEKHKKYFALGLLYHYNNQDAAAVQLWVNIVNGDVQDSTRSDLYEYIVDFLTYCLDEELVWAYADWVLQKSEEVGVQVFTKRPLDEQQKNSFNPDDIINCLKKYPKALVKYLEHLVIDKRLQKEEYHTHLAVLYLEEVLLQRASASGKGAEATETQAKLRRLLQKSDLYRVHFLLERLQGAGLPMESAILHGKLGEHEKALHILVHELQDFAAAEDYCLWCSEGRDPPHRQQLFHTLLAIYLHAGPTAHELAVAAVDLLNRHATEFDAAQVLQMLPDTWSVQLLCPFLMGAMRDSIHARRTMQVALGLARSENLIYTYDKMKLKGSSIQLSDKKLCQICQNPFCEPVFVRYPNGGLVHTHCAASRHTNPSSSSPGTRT
UniProt Q03167: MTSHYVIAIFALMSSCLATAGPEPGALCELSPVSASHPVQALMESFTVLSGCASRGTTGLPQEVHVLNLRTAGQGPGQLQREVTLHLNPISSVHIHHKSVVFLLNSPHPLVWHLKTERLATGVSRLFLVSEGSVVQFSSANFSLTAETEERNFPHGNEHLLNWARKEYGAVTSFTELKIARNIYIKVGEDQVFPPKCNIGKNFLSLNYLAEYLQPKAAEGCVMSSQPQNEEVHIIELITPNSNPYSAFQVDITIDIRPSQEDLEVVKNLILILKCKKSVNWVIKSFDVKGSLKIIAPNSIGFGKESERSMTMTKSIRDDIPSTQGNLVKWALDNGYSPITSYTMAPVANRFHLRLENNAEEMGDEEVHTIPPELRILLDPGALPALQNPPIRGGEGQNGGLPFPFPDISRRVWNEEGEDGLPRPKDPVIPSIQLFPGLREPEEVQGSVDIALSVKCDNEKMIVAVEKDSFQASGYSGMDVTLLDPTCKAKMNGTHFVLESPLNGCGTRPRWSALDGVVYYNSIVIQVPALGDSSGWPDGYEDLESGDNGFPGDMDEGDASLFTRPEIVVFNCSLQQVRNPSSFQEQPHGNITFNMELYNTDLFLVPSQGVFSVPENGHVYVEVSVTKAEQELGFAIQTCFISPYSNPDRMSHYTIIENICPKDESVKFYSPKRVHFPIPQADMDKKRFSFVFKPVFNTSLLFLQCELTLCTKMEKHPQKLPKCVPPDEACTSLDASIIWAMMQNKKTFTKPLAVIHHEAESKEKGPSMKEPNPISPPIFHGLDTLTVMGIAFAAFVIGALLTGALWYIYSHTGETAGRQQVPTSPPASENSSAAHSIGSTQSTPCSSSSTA
UniProt Q12788: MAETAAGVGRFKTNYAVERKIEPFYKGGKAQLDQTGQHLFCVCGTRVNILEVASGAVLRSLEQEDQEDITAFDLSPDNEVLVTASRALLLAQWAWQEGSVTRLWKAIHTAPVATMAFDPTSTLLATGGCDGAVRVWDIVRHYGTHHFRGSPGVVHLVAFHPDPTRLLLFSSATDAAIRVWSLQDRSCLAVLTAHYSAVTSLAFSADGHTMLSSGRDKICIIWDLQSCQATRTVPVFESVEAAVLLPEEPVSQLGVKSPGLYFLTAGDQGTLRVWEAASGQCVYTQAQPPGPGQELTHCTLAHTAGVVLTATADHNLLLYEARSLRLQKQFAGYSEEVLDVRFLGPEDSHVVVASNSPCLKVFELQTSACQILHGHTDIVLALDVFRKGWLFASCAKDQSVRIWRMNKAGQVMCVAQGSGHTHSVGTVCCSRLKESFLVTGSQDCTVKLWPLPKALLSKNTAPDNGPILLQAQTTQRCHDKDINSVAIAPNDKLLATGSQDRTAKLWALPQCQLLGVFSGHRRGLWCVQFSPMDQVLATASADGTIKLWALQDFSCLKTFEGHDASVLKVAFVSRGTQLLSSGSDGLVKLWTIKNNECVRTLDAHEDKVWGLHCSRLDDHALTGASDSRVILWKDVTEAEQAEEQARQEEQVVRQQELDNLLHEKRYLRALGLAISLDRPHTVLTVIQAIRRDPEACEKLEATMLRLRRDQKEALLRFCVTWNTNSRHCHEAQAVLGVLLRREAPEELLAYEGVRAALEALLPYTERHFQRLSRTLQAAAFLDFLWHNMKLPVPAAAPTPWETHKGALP
UniProt Q9UPU7: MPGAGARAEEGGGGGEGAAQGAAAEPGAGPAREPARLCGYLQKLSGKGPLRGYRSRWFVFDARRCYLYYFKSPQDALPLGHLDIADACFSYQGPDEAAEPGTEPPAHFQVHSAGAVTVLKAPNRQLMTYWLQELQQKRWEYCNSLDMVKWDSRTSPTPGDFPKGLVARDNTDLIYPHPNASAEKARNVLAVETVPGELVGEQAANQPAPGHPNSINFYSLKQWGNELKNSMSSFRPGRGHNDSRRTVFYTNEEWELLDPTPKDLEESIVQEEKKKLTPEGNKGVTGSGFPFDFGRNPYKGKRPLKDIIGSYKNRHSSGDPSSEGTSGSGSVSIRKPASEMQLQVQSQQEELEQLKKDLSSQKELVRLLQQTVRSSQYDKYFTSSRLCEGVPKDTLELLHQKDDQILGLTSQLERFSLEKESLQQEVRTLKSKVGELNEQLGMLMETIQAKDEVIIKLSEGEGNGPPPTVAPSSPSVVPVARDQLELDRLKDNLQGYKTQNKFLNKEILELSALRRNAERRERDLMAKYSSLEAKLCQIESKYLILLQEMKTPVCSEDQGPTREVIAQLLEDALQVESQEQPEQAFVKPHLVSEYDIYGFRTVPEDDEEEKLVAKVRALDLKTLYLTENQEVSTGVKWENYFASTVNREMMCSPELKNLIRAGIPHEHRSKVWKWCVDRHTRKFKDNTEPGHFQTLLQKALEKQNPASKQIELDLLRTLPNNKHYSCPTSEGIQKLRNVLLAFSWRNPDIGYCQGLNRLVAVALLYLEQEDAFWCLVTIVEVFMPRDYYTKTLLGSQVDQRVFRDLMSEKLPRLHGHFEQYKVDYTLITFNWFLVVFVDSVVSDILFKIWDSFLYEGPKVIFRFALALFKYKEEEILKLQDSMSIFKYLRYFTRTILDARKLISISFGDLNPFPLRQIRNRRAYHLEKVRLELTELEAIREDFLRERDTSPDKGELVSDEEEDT
UniProt Q8WVM0: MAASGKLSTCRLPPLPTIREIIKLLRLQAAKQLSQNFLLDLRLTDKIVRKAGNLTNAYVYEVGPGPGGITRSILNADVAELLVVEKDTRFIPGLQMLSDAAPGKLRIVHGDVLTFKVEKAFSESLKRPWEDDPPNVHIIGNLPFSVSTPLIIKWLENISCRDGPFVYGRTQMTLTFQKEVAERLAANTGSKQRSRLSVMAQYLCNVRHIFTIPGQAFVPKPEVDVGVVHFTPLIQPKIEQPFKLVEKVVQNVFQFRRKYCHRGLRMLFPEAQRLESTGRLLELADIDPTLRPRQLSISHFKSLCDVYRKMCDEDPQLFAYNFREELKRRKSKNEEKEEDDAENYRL
UniProt Q96J01: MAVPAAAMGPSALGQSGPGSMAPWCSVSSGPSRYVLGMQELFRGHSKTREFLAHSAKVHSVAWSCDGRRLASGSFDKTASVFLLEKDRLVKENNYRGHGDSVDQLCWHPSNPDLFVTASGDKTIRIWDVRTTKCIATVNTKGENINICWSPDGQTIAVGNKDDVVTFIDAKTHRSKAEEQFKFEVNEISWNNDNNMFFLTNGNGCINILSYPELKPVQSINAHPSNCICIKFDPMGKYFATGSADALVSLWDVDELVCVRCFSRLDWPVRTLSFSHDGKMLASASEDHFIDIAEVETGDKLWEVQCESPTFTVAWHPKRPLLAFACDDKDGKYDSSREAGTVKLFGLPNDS
UniProt Q9Y4C2: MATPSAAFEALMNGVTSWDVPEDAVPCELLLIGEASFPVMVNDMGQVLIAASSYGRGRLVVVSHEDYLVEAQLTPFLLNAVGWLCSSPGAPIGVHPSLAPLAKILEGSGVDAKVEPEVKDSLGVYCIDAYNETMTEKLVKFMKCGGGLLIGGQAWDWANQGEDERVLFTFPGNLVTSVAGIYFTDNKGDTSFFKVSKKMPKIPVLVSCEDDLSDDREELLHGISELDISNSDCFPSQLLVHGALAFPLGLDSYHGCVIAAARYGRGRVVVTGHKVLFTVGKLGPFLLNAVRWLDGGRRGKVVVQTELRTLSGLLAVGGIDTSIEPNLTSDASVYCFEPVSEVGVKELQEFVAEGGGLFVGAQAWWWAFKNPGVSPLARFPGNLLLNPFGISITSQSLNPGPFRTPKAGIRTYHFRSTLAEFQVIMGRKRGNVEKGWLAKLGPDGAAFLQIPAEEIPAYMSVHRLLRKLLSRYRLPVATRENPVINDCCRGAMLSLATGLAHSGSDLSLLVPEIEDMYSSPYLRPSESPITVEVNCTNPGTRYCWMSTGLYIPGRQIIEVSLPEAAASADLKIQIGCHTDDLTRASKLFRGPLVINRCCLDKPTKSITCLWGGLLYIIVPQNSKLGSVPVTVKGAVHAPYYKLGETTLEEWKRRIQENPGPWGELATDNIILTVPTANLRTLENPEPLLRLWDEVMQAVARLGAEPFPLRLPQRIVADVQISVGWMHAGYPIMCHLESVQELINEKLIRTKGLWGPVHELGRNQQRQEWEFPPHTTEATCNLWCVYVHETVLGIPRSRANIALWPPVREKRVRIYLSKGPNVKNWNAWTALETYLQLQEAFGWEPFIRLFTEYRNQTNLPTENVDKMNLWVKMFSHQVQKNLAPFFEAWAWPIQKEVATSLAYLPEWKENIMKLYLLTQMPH
UniProt O14925: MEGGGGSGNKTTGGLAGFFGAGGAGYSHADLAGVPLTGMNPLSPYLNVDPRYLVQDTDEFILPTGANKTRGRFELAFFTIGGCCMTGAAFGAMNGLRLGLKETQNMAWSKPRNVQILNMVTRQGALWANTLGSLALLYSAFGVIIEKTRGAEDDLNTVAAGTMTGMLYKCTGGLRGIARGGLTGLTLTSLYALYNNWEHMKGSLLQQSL
UniProt Q8TC07: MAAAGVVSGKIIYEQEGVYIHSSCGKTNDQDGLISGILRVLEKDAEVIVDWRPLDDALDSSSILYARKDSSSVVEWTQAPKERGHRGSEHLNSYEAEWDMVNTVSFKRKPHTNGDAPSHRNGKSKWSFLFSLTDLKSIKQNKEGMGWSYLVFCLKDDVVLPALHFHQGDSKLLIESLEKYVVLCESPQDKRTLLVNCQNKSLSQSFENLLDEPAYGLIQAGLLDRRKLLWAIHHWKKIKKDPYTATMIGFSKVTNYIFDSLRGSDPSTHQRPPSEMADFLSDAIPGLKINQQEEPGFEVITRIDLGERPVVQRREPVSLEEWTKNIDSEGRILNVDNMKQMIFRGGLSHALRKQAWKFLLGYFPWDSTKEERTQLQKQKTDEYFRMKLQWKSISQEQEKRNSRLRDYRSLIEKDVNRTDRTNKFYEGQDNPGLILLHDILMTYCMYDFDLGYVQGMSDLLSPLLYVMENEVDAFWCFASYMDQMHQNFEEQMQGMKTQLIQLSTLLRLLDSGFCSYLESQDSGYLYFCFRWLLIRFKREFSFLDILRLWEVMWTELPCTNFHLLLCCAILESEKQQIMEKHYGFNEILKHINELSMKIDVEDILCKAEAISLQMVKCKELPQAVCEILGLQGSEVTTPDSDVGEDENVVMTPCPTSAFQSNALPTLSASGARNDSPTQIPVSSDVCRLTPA
UniProt Q8WUA7: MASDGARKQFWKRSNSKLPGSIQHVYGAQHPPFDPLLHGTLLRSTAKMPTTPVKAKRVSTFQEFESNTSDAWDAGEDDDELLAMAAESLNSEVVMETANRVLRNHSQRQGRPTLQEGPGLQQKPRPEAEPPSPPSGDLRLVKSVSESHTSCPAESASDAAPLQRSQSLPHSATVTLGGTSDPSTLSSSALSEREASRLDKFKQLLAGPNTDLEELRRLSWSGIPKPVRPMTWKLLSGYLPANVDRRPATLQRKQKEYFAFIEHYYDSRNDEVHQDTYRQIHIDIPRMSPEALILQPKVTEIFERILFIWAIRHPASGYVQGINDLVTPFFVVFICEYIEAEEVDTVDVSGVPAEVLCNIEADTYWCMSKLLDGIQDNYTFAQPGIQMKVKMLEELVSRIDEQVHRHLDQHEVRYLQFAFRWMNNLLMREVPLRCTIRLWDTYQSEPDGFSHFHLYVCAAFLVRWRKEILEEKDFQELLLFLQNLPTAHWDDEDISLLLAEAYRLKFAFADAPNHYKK

How the values were obtained:
Assay in all cases: log2 fold change, soluble protein after heating vs DMSO (PISA); higher = thermal stabilisation; K562 cells, 10 uM, 30 min; active = over 0.2 and 3.5 SD of the protein, either way, in both replicates (recomputed)
[1] = compound: C1=CC=C(C=C1)[C@H](COC2=CC3=C(C=C2)NC(=O)N3)NC(=O)C4=CC=CN(C4=O)CC5=CC(=C(C=C5)F)F
Outline: (§1)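 Thermal stability values are relative to control samples and come from duplicates. They are expressed as log2 fold changes. For measurement, K562 cells (2×10^6 cells/mL) received 10 μM compound for 30 min, and aliquots were heated for 3 min over 48°C-58°C, pooled, and extracted at 4°C in PBS with 0.5% NP-40. Soluble protein, the supernatant after 21,000xg for 90 min, was quantified by TMTpro 16plex LC-MS/MS with equalised channel sums.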

[2] = compound: CC1=C(SC2=C1C(=N[C@H](C3=NN=C(N32)C)CC(=O)N)C4=CC=C(C=C4)Cl)C
Outline: as §1

[3] = compound: CC1=C2C(=CC=C1)N=C(N(C2=O)C3=CC=CC=C3C)CN4C=NC5=C(N=CN=C54)N
Outline: as §1

[4] = compound: Cc1sc2c(c1C)C(c1ccc(Cl)cc1)=N[C@@H](CC(=O)OC(C)(C)C)c1nnc(C)n1-2
Outline: as §1

[5] = compound: c1ccc([C@@H]2C[C@H]2NC2CCNCC2)cc1
Outline: as §1

Measured: log2 fold change

TGFBRAP1 (UniProt Q8WUH2)
inactive: [1] -0.021 | [2] 0.03 | [3] 0.075 | [4] -0.105 | [5] -0.004

TGFBR3 (UniProt Q03167)
inactive: [1] -0.048 | [2] -0.007 | [3] -0.041 | [4] -0.006 | [5] 0.025

TBL3 (UniProt Q12788)
inactive: [1] 0.026 | [2] -0.019 | [3] -0.068 | [4] 0.016 | [5] -0.046

TBC1D2B (UniProt Q9UPU7)
inactive: [1] 0.119

2 successive entries out of the list so far:
TGFBR3 (UniProt Q03167)
inactive: [1] -0.048 | [2] -0.007 | [3] -0.041 | [4] -0.006 | [5] 0.025

TBL3 (UniProt Q12788)
inactive: [1] 0.026 | [2] -0.019 | [3] -0.068 | [4] 0.016 | [5] -0.046

Further entries follow.

TFB1M (UniProt Q8WVM0)
inactive: [1] -0.161 | [2] -0.214 | [3] -0.177 | [4] 0.116 | [5] -0.053

THOC3 (UniProt Q96J01)
inactive: [1] 0.02 | [2] 0.018 | [3] 0.021 | [4] 0.01 | [5] 0.003

TCAF1 (UniProt Q9Y4C2)
inactive: [1] -0.03 | [2] -0.031 | [3] 0.071 | [4] 0.082 | [5] -0.013

TIMM23 (UniProt O14925)
inactive: [1] 0 | [2] -0.016 | [3] -0.085 | [4] -0.002 | [5] 0.049

TBC1D15 isoform 3 (UniProt Q8TC07)
inactive: [1] -0.072 | [2] 0.013 | [3] 0.045 | [4] 0.005 | [5] -0.019

TBC1D22A (UniProt Q8WUA7)
inactive: [1] 0.021 | [2] 0.065 | [3] -0.026 | [4] -0.006 | [5] 0.026
